Experimental findings from publication PMC8745574 are described below.

Chains of the proteins cited; added tags and fusions are not shown. Lines headed by an entry give the natural chain unless they say otherwise; changes in a name come on top.
UniProt Q9LF51: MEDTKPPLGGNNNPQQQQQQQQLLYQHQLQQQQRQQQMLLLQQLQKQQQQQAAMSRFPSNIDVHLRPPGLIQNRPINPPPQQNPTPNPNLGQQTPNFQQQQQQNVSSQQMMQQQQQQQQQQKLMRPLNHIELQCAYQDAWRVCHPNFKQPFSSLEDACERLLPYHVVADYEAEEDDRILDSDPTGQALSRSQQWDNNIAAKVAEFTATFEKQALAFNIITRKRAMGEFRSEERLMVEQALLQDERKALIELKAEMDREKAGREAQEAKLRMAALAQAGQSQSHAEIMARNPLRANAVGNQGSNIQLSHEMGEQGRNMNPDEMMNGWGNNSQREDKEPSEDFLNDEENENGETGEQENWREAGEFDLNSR
UniProt Q9LXU1: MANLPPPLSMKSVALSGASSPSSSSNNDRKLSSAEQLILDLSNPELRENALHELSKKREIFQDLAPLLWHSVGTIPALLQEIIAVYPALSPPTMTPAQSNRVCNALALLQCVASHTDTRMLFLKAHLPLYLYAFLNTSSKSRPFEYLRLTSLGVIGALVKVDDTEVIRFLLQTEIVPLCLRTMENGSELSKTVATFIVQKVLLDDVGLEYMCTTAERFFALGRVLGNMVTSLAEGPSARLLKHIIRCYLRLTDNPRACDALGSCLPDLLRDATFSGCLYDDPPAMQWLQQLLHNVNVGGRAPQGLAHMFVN
UniProt Q84J78: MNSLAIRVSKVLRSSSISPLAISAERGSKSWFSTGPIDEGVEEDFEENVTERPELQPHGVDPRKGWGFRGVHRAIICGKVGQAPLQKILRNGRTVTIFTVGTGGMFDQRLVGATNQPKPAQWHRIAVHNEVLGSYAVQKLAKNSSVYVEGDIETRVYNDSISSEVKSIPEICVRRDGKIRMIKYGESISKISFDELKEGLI
UniProt Q9FMT4: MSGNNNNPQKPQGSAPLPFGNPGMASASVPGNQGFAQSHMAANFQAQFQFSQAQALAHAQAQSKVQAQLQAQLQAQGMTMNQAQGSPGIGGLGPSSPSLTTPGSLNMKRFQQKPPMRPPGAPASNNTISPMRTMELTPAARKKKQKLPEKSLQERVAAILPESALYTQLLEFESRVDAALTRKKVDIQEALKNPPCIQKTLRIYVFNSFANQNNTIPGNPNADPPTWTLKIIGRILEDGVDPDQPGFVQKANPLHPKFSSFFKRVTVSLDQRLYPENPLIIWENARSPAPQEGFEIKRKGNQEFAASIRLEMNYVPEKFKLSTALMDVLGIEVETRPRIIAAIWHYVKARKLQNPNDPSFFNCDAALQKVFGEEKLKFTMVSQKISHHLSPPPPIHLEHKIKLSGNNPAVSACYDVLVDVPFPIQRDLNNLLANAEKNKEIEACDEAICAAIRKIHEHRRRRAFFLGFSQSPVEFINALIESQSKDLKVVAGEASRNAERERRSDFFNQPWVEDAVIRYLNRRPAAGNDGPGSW

No constants are given. Whether binding was seen depends on the method and setting. For some assays here: Binding can be weak; no strength is given. For some assays here: Binding seen in cells or lysates may run through a third protein. For some assays here: Tags and fused reporters may be left off the sequences shown.

The target of assay [1] is T1, AtTERT TEN construct (1-233 aa) (Arabidopsis thaliana) (UniProt Q9SPU7).
T1 sequence: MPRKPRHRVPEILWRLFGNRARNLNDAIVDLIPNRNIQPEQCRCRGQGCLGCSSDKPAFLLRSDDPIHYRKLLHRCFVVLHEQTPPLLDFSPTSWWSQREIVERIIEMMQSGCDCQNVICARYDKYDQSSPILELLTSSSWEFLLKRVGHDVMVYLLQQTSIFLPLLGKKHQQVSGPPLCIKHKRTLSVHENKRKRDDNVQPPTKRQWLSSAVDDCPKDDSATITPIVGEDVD
Kind of assay: two-hybrid; Matchmaker GAL4 system, pGADT7-DEST/pGBKT7-DEST, S. cerevisiae PJ69-4α, 30 °C; growth on -LWH plates (with increasing 3-aminotriazol) and -LWHAde plates.

Assay [2] has as its target T2, POT1a (Arabidopsis thaliana) (UniProt Q56Y52).
T2 sequence: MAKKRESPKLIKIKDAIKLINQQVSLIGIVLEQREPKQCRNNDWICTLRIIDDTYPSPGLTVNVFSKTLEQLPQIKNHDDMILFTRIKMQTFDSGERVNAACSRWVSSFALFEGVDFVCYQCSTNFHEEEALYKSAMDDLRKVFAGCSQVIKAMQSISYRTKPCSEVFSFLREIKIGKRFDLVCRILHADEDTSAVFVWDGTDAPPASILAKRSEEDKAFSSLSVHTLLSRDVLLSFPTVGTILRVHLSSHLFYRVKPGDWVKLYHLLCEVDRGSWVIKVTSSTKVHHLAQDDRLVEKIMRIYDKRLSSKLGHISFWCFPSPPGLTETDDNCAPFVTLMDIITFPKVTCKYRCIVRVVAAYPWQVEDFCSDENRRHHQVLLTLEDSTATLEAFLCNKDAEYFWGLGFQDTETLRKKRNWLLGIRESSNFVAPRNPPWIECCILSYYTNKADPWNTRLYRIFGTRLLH
The description is as above.

For assay [3], the target named is T3, cYFP-POT1a (N. benthamiana) (Arabidopsis thaliana) (UniProt Q56Y52).
T3 sequence: T2 sequence
Kind of assay: split reporter; BiFC, nYFP/cYFP constructs (pE-SPYNE-GW, pE-SPYCE-GW, pC-SPYNE-GW) transiently expressed in N. benthamiana leaves, confocal microscopy after 3 days.

Assay [4] addresses T4, NRP1 (Arabidopsis thaliana) (UniProt Q9CA59).
T4 sequence: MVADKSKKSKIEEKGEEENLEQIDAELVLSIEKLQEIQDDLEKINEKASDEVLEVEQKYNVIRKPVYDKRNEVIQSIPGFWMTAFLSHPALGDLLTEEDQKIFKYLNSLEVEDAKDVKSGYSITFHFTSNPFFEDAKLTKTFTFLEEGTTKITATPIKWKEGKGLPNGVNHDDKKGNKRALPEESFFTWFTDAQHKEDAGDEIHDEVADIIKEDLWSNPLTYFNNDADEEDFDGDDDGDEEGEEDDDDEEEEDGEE
Kind of assay: two-hybrid; Matchmaker GAL4 system, pGADT7-DEST/pGBKT7-DEST, S. cerevisiae PJ69-4α, 30 °C; growth on -LWH plates (with increasing 3-aminotriazol) and -LWHAde plates.

For assay [5], the target named is T5, NRP2 (Arabidopsis thaliana) (UniProt Q8LC68).
T5 sequence: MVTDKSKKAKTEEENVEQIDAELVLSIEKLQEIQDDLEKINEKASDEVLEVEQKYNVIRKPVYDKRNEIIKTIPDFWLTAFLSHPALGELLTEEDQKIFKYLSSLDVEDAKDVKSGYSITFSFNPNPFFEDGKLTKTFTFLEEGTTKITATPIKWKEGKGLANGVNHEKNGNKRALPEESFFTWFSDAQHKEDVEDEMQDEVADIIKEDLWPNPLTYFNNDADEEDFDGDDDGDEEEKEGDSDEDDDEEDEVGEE
Described as above.

For assay [6], the target named is T6, actin-related protein 4 (ARP4) (Arabidopsis thaliana) (UniProt Q84M92).
T6 sequence: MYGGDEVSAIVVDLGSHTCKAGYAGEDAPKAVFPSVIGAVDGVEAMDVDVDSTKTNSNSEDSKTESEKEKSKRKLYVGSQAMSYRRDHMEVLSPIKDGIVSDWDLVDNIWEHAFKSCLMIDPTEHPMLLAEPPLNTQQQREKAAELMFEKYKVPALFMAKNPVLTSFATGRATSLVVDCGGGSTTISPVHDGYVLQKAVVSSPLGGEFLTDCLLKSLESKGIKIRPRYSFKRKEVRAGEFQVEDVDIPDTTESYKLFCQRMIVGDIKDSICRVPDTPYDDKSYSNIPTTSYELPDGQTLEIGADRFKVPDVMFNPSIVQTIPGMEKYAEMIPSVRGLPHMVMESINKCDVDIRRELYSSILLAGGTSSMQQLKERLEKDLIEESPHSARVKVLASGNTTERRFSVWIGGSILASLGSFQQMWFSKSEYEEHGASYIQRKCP
The description is as above.

The target in assay [7] is T7, high-mobility-group B4 (HMGB4) protein (Arabidopsis thaliana) (UniProt Q42344).
T7 sequence: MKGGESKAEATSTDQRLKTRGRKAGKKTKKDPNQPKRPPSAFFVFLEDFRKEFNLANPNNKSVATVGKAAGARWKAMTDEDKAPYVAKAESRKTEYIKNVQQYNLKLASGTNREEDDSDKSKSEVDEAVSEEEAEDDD
Described as above.

The target in assay [8] is T8, AtTERT RID construct (1-271 aa) (Arabidopsis thaliana) (UniProt Q9SPU7).
T8 sequence: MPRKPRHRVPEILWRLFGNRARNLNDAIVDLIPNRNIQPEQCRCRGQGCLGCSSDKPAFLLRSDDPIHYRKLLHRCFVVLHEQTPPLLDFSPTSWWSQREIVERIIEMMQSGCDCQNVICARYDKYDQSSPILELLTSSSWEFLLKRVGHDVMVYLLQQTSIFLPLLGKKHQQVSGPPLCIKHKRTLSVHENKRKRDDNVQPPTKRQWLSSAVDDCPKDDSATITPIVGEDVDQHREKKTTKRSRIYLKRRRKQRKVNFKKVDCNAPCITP
Described as above.

Assay [9] concerns the target T9, cYFP-RID (Arabidopsis protoplasts) (Arabidopsis thaliana) (UniProt Q9SPU7).
T9 sequence: T8 sequence
Kind of assay: split reporter; BiFC, pSAT1-nEYFP-C1/pSAT1-cEYFP-C1-B constructs in Arabidopsis protoplasts, confocal microscopy 16 h after transfection.

The target in assay [10] is c-myc-tagged MtGP1, in vitro translated (Arabidopsis thaliana) (UniProt Q9LZM6). Kind of assay: co-IP; both proteins translated in vitro in rabbit reticulocyte lysate; 35S-Met labelled prey mixed with c-myc- or HA-tagged bait in 25 mM HEPES pH 7.5, 150 mM KCl, 5 mM MgCl2, 0.1% Nonidet P-40; anti-c-myc or anti-HA magnetic beads.
Assay [11] deals with DOMINO1 (Arabidopsis thaliana). Kind of assay: two-hybrid; Matchmaker GAL4 system, pGADT7-DEST/pGBKT7-DEST, S. cerevisiae PJ69-4α, 30 °C; growth on -LWH plates (with increasing 3-aminotriazol) and -LWHAde plates.

In the case of “hypersensitive induced reaction protein HIRP2 (Arabidopsis thaliana)”, the binding entry in assay [1] and in [2] was “binds” throughout.
Turning to MtSSB-nYFP (Arabidopsis thaliana), the binding result in assay [3] is “binds”.
“histone1-like protein HON4 (Arabidopsis thaliana)”: the binding result in assay [4] is “binds”; in assay [5], “binds”; in assay [2] it was “no binding”; in assay [6], “no binding”; in [7], “no binding”.
As for “NOP56-like protein (NOP56L) (Arabidopsis thaliana)”, the binding result in assay [8] is recorded as “no binding”.
As for “NOP58-like protein (NOP58L) (Arabidopsis thaliana)”, the binding entry in [8] is “no binding”.
“mediator of RNA polymerase II transcription subunit-like protein AT5G17510 (from UniProt Q9LF51)”: in [2], the binding entry is listed as “binds”.
On the same count and under the same terms, next, “OB-fold-like protein AT2G40660 (Arabidopsis thaliana)”: “no binding”.
In the case of “Rcd1-like protein AT5G12980 (from UniProt Q9LXU1)”, the binding result in assay [1] and in assay [2] was “binds weakly” throughout.
Take nYFP-HIRP2 (Arabidopsis thaliana): the binding entry in assay [9] is “binds”.
Regarding “AT3G12210 protein (Arabidopsis thaliana)”, the binding result in [1] and in assay [2] was “binds” throughout.
Consider “putative DNA helicase AT2G03270 (Arabidopsis thaliana)”, for which the binding entry in assay [2] is given as “no binding”.
On the same count and under the same terms, next, “SSB1 (single-stranded DNA binding 1) (Arabidopsis thaliana)”: “binds”.
For DOMINO1 (Arabidopsis thaliana), the binding entry was “binds weakly” in [8], “binds weakly” in assay [1] and “binds” in assay [2].
“MTSSB (mitochondrially targeted single-stranded DNA binding) (from UniProt Q84J78)”: the binding result in assay [2] is given as “binds”.
For the molecule “chromodomain remodeling complex protein 1 (CHC1) (from UniProt Q9FMT4)”, the binding entry in assay [8] is listed as “binds weakly”; in assay [1], “binds”; in assay [2], “binds weakly”; in assay [6], “binds”; in [7], “no binding”.
Turning to DEAH2 (Arabidopsis thaliana), the binding result in [2] is “no binding”.
As for “hypersensitive induced reaction protein HIRP4 (Arabidopsis thaliana)”, the binding result in assay [1] and in assay [2] was “binds” in each case.
As for “mediator of RNA polymerase II transcription subunit-like protein AT3G03460 (from UniProt Q9SRQ0)”, the binding result in assay [2] is “binds”.

B1: RID, radioactively labelled, in vitro translated (domain or fragment, UniProt Q9SPU7 1-271)
chain: T8 sequence
modifications: 35S-Met labelled
As to B1, in assay [10], the binding entry is given as “binds”.

B2: FIB2 (protein, UniProt Q94AH9 1-320)
chain: MRPPLTGSGGGFSGGRGRGGYSGGRGDGGFSGGRGGGGRGGGRGFSDRGGRGRGRGPPRGGARGGRGPAGRGGMKGGSKVIVEPHRHAGVFIAKGKEDALVTKNLVPGEAVYNEKRISVQNEDGTKTEYRVWNPFRSKLAAAILGGVDNIWIKPGAKVLYLGAASGTTVSHVSDLVGPEGCVYAVEFSHRSGRDLVNMAKKRTNVIPIIEDARHPAKYRMLVGMVDVIFSDVAQPDQARILALNASYFLKSGGHFVISIKANCIDSTVPAEAVFQTEVKKLQQEQFKPAEQVTLEPFERDHACVVGGYRMPKKPKAATAA
Consider B2, for which the binding entry in assay [11] is “binds weakly”.

B3: LSm4 (LIKE Sm 4) (protein, UniProt F4K4E3 1-129)
chain: MLPLSLLKTAQGHPMLVELKNGETYNGHLVNCDTWMNIHLREVICTSKDGDRFWRMPECYIRGNTIKYLRVPDEVIDKVQEEKTRTDRKPPGVGRGRGRGVDDGGARGRGRGTSMGKMGGNRGAGRGRG
Consider B3, for which the binding result in assay [11] was “binds”.
